{"source": "patent US10244756B2", "about": "“Fungicidal N-cycloalkyl-N-{[ortho-(1-substituted-cycloalkyl)heteroaryl]methyl}(thio)carboxamides” (Bayer CropScience Aktiengesellschaft, priority 2015, dated 2019)", "key": {"Uromyces appendiculatus": {"tested_on": "Uromyces appendiculatus", "test": "In vivo preventive test on Uromyces appendiculatus (bean rust)", "settings": "dose of 100 ppm of active ingredient, comparison with CMP1", "procedure": "(§1) Example B: In Vivo Preventive Test on Uromyces Appendiculatus (Bean Rust) Solvent: 5% by volume of Dimethyl sulfoxide • 10% by volume of Acetone Emulsifier: 1 μL of Tween® 80 per mg of active ingredient The active ingredients are made soluble and homogenized in a mixture of Dimethyl sulfoxide/Acetone/Tween® 80 and then diluted in water to the desired concentration. The young plants of bean are treated by spraying the active ingredient prepared as described above. Control plants are treated only with an aqueous solution of Acetone/Dimethyl sulfoxide/Tween® 80. After 24 hours, the plants are contaminated by spraying the leaves with an aqueous suspension of Uromyces appendiculatus spores. The contaminated bean plants are incubated for 24 hours at 20° C. and at 100% relative humidity and then for 10 days at 20° C. and at 70-80% relative humidity. The test is evaluated 11 days after the inoculation. 0% means an efficacy which corresponds to that of the control plants while an efficacy of 100% means that no disease is observed."}, "Puccinia recondita": {"tested_on": "Puccinia recondita", "test": "In vivo preventive test on Puccinia recondita (brown rust on wheat)", "settings": "dose of 100 ppm of active ingredient, comparison with CMP1", "procedure": "as §1, with “A:” for “B:”, “Puccinia Recondita (Brown Rust on Wheat)” for “Uromyces Appendiculatus (Bean Rust)”, “wheat” for “bean”, “Puccinia recondita” for “Uromyces appendiculatus”"}}, "note": "At least one compound was matched to its structure with a doubt left.", "data": [{"smiles": "CC(C)c1ncc(Cl)cc1CN(C(=O)c1cn(C)nc1C(F)F)C1CC1", "note": "[CMP1, N-[(5-chloro-2-isopropylpyridin-3-yl)methyl]-N-cyclopropyl-3-(difluoromethyl)-1-methyl-1H-pyrazole-4-carboxamide]", "values": [{"measurement": "protection", "setting": "Uromyces appendiculatus", "value": "no protection"}, {"measurement": "protection", "setting": "Puccinia recondita", "value": "no protection"}]}]}
